# Data as given in PubChem BioAssay AID1159578 (Peter MacCallum Cancer Centre, 2015)
# Screen: 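Genome-wide hunt for genes controlling movement of lymphatic endothelial cells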 (primary screen)
# Cells: human lymphatic endothelial cells
# Knock-down reagent: siRNA pool against human genes, 40 nM
# Duration: 48 h after transfection
# Detection: 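High-content imaging of dye-stained cells in a scratch assay measures filled wound area and nuclei per well; duplicate means given as ratio to mock and robust z-score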
# Scale: migration robust z-score: higher = faster migration into the scratch; migration relative to mock: higher = more scratch area covered than mock; nuclei per well: higher = more cells in the well
# Rule for the call: 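Pools averaging fewer than 3300 nuclei are never called; remaining pools count as changed when migration robust z lies outside -2 to 2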
# Calls: active = migration changed; inactive = no migration change, or too few cells
# The whole screen tested about 18,000 reagents; shown is a part drawn at random. Over the whole deposit, about 1,030 (5.7%) were called active. 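Inactive calls also include pools with fewer than 3300 nuclei, whose migration was not assessed.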 Raw values are not corrected between plates. A number with no mark means an inactive call.
gene,migration robust z-score,migration class with cell-count check,migration relative to mock,"nuclei per well, duplicate mean"
OR4K14,-1.09,migration z between -2 and 2; enough cells,0.6,5496
P2RX6,1.17,migration z between -2 and 2; enough cells,1.03,4220
FLT3,-2.52 (active),migration z below -2; enough cells,0.32,3382
ASIC4,-0.67,migration z between -2 and 2; enough cells,0.68,5204
SLC43A1,0.52,migration z between -2 and 2; enough cells,0.9,5458
C12orf60,0.07,migration z between -2 and 2; enough cells,0.9,6402
ZNF337,1.62,migration z between -2 and 2; enough cells,1.31,7194
MTA2,-0.74,migration z between -2 and 2; enough cells,0.7,4812
UTP4,-0.62,migration z between -2 and 2; enough cells,0.72,6350
ENHO,-0.61,migration z between -2 and 2; enough cells,0.73,5038
CALB2,-0.23,migration z between -2 and 2; enough cells,0.83,5476
ATP6V1E1,0.86,migration z between -2 and 2; enough cells,0.97,6958
HERPUD1,-0.42,migration z between -2 and 2; enough cells,0.77,5038
KRT20,-0.67,migration z between -2 and 2; enough cells,0.72,6358
OVGP1,-0.18,migration z between -2 and 2; enough cells,0.77,5788
FOXP3,0.1,migration z between -2 and 2; enough cells,0.82,5769
C1RL,-1.4,migration z between -2 and 2; enough cells,0.53,3866
RBMS1,-1.22,migration z between -2 and 2; enough cells,0.57,5102
RLBP1,-0.88,migration z between -2 and 2; enough cells,0.66,6885
YIPF5,-0.11,migration z between -2 and 2; enough cells,0.86,6762
AGBL3,-0.02,migration z between -2 and 2; enough cells,0.88,6094
HSPB7,0.07,migration z between -2 and 2; enough cells,0.9,5020
BNC1,0.37,migration z between -2 and 2; enough cells,0.98,7176
PCMT1,0.88,migration z between -2 and 2; enough cells,0.98,7007
DNAH5,-0.83,migration z between -2 and 2; enough cells,0.64,6326
PPIL6,-0.13,migration z between -2 and 2; enough cells,0.78,5670
MON1A,0.04,migration z between -2 and 2; enough cells,0.9,6018
FRAT2,-1.07,migration z between -2 and 2; enough cells,0.6,5224
SPTLC1,-0.7,migration z between -2 and 2; enough cells,0.67,3614
DLGAP3,0.92,migration z between -2 and 2; enough cells,1.12,6267
ZNF436-AS1,0.08,migration z between -2 and 2; enough cells,0.9,5789
MBD1,-1.55,migration z between -2 and 2; enough cells,0.5,5666
CDH8,0.35,migration z between -2 and 2; enough cells,0.97,5798
ADCY6,2.1 (active),migration z above 2; enough cells,1.21,5850
CARHSP1,-0.64,migration z between -2 and 2; enough cells,0.72,5381
SEMA4F,-0.92,migration z between -2 and 2; enough cells,0.64,5078
SNN,0.25,migration z between -2 and 2; enough cells,0.95,5146
SERPINB7,1.54,migration z between -2 and 2; enough cells,1.29,6261
HMHB1,0.68,migration z between -2 and 2; enough cells,1.06,5818
CLRN1,1.86,migration z between -2 and 2; enough cells,1.36,5574
SPG7,0.1,migration z between -2 and 2; enough cells,0.82,5400
CEP57,-0.76,migration z between -2 and 2; enough cells,0.69,7304
STK11IP,3.96 (active),migration z above 2; enough cells,1.92,6888
TGFBR1,-0.29,migration z between -2 and 2; enough cells,0.75,6136
PYROXD1,-0.38,migration z between -2 and 2; enough cells,0.78,5863
MMP17,0.65,migration z between -2 and 2; enough cells,0.93,5484
PCDHGB6,0.1,migration z between -2 and 2; enough cells,0.92,6496
TAC1,1.19,migration z between -2 and 2; enough cells,1.19,6458
SAP30,0.75,migration z between -2 and 2; enough cells,0.95,6512
SAMM50,-0.2,migration z between -2 and 2; enough cells,0.84,4362
MS4A5,-1.15,migration z between -2 and 2; enough cells,0.59,6076
SLC3A1,-0.2,migration z between -2 and 2; enough cells,0.76,3895
ABCA12,0.7,migration z between -2 and 2; enough cells,0.94,5684
FAM50B,-0.36,migration z between -2 and 2; enough cells,0.79,4750
ABLIM2,-0.3,migration z between -2 and 2; enough cells,0.81,4742
CFTR,1.32,migration z between -2 and 2; enough cells,1.06,5556
SNHG32,1.67,migration z between -2 and 2; enough cells,1.31,5411

9 of these entries, reformatted:
gene	migration robust z-score	migration class with cell-count check	migration relative to mock	nuclei per well, duplicate mean
KRT20	-0.67	migration z between -2 and 2; enough cells	0.72	6358
OVGP1	-0.18	migration z between -2 and 2; enough cells	0.77	5788
FOXP3	0.1	migration z between -2 and 2; enough cells	0.82	5769
C1RL	-1.4	migration z between -2 and 2; enough cells	0.53	3866
RBMS1	-1.22	migration z between -2 and 2; enough cells	0.57	5102
RLBP1	-0.88	migration z between -2 and 2; enough cells	0.66	6885
YIPF5	-0.11	migration z between -2 and 2; enough cells	0.86	6762
AGBL3	-0.02	migration z between -2 and 2; enough cells	0.88	6094
HSPB7	0.07	migration z between -2 and 2; enough cells	0.9	5020
